Measured values as given in US20180000768A1, “INTESTINAL FXR AGONISM ENHANCES GLP-1 SIGNALING TO RESTORE PANCREATIC BETA CELL FUNCTIONS” (Salk Institute for Biological Studies, priority 2015, published 2018).

Tested on: Leptin-deficient ob/ob mice
Test: metabolic phenotype and glucose homeostasis of treated ob/ob mice
Type: in vivo, mouse
Experimental: Leptin-deficient ob/ob mice were purchased from Jackson laboratory (stock no. 000632). Each mouse consumed 100 mg per kg of body weight Fex (in corn oil) per day by oral gavage for 5 weeks. For in vivo analog study, each mouse consumed 50 mg per kg of body weight Fex-D (in corn oil) per day by oral gavage for 14 days. For GLP-1 receptor antagonist study, each mouse was daily treated with 100 μg per kg of body weight Exendin 9-39 amide (Abcam) via intraperitoneal injection for 2 weeks. For INT-777 study, each mouse was daily gavaged with 60 mg per kg of body weight INT-777 (in corn oil) for 5 weeks. […] Core body temperature was measured with a clinical rectal thermometer (Thermalert model TH-5; Physitemp). […] Tail blood was drawn at indicated time intervals, and blood glucose level was measured with a One Touch Ultra glucometer (LifeScan). Body composition was measured with Echo MRI-100 body composition analyzer (Echo Medical Systems). […]
Real-time metabolic analyses were conducted in a Comprehensive Lab Animal Monitoring System (Columbus Instruments). CO2 production, O2 consumption, RQ (relative rates of carbohydrate versus fat oxidation) and ambulatory counts were determined for 4 consecutive days and nights, with at least 24-h for adaptation before data recording. […]

For `COC(=O)/C=C/c1cccc(N(Cc2ccc(-c3ccc(N(C)C)cc3)cc2)C(=O)C2CCCCC2)c1` [Fexaramine], the body weight gain (Fex 100 mg/kg daily oral gavage, 5 weeks) was “did not exhibit any changes” and the “body weight compared to vehicle treatment” value (Fex 100 mg/kg/day for 2 weeks) was “Neither Fex nor Fex-D treatment led to any changes”.
